Test results from patent publication US20250340871A1.
No constants are given. Whether binding was seen depends on the method and setting. Some binding calls cover weakened binding; strength is not graded here.

By UniProt entry, the sequences of proteins in these tests, tags left out. Residues count along the entry.
UniProt P27694: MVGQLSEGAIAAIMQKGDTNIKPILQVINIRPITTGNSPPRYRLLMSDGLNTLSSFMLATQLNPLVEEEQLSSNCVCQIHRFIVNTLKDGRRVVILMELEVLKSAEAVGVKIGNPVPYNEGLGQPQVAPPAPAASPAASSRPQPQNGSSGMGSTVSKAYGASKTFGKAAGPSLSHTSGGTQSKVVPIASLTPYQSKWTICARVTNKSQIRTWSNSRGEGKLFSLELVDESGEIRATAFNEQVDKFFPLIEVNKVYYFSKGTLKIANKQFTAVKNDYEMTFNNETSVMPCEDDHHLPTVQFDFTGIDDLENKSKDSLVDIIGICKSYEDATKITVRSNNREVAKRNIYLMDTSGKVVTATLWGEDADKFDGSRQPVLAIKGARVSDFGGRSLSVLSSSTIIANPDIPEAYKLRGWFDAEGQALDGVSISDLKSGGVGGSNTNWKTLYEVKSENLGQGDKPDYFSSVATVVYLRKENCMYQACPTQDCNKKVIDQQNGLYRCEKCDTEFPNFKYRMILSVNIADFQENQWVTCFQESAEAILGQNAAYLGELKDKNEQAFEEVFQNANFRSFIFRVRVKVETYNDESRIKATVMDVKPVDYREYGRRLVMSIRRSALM
UniProt P09874, residues 2-1014: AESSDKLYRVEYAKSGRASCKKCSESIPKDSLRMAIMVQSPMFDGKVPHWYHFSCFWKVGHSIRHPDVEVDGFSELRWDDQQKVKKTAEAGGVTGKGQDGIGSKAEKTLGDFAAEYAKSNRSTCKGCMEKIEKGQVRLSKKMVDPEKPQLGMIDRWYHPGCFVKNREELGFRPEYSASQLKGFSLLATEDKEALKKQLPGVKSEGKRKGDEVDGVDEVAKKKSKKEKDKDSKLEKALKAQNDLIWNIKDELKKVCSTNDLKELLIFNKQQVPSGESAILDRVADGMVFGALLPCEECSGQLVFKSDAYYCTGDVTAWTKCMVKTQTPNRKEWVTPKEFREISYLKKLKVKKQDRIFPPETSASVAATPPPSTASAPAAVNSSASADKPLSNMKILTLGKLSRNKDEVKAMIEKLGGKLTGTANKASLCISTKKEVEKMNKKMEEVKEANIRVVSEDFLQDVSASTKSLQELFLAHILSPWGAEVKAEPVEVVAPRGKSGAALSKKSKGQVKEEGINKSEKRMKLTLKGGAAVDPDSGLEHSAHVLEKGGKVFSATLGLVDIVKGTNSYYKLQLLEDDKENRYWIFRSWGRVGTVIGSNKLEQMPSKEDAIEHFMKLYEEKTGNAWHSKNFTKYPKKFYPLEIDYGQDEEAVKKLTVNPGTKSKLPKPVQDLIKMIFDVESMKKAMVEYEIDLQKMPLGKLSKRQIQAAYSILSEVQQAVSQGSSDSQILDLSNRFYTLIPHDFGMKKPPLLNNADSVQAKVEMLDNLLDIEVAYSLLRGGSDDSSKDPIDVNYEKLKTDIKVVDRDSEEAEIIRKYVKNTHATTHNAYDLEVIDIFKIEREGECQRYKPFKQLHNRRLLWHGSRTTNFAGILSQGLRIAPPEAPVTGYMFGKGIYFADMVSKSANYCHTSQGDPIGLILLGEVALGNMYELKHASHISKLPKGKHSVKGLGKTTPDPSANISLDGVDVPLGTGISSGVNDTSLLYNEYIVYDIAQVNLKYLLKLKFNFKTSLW
UniProt P15927: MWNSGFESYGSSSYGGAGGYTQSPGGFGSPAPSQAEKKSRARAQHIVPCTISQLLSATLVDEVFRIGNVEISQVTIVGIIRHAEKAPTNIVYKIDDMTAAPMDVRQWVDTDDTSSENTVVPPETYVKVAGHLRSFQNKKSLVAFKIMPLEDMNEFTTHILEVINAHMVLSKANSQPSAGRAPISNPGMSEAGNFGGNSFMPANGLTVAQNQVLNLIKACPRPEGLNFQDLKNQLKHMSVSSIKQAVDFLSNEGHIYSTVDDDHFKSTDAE
UniProt P46937: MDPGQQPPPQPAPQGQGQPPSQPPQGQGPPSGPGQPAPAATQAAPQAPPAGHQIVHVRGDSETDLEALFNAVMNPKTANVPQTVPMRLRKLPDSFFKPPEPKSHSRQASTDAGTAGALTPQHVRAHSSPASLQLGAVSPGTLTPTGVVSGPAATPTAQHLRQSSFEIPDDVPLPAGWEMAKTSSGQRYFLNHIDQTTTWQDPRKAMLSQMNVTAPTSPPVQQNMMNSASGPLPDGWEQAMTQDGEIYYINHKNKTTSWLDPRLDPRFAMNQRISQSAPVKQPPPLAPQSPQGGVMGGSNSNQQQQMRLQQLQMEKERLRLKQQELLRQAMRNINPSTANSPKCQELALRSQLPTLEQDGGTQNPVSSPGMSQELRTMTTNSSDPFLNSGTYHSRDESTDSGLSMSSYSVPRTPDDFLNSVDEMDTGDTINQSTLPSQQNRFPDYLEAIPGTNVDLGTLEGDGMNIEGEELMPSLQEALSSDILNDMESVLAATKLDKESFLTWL
UniProt P15976: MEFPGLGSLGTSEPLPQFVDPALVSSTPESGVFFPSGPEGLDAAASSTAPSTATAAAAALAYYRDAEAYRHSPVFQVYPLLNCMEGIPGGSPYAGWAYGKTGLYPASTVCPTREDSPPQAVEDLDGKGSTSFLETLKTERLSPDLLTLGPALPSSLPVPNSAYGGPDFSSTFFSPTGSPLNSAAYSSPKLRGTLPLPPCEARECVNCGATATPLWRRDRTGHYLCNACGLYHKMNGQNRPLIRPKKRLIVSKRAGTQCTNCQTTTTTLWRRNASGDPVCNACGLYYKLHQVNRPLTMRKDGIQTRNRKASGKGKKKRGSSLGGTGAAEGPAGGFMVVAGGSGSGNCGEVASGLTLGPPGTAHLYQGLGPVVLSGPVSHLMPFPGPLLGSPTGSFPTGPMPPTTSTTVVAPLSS

Columns and labels:
RPA1 [1] = target: RPA1 (UniProt P27694); experiment: immunoprecipitation (FIG. 1b legend)
PARP [2] = target: PARP (UniProt P09874); experiment: immunoprecipitation (FIG. 1b legend)
RPA2 [3] = target: RPA2 (UniProt P15927); experiment: immunoprecipitation (FIG. 1b legend)
RPA1 [4] = target: RPA1 (UniProt P27694); experiment: immunoprecipitation (FIG. 1b)
PARP [5] = target: PARP (UniProt P09874); experiment: immunoprecipitation (FIG. 1b)
RPA2 [6] = target: RPA2 (UniProt P15927); experiment: immunoprecipitation (FIG. 1b)

Measured: binding

YAP (from UniProt P46937 1-504)
binds: all assays above

GATA1 (from UniProt P15976 1-413)
binds: PARP [2] | PARP [5]
